# Measured values: paper PMC12219335
# Chains of the proteins cited; added tags and fusions are not shown. Residues count along the entry.
# UniProt Q9NZQ7, residues 19-290: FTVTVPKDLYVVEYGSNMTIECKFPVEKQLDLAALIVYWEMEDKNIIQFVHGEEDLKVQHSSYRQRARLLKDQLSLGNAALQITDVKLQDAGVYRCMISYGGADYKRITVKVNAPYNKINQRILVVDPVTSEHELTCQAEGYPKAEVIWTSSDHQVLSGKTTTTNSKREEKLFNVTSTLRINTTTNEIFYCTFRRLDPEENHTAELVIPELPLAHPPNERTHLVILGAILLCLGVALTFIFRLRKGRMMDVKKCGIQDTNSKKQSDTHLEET
# Substitutions are numbered along the chain they refer to. No constants are given. Whether binding was seen depends on the method and setting. In cells and extracts the contact can be indirect. Some binding calls cover weakened binding; strength is not graded here. For part of these data: Where a sequence is shown, tags or fusion partners need not be part of it.
# Columns and labels:
# [1] = target: T1, calcineurin B homologous protein 1 (CHP1) (human (endogenous in SCC9)) (UniProt Q99653); test: co-IP; endogenous proteins; anti-CHP1 (2.5 µg/IP) or anti-PD-L1 (2.5 µg/IP) antibody, Western blot; SCC9 cells, also after NMT1 knock-down (shNMT1), IP with anti-CHP1 and blot for PD-L1
# T1 sequence (chain, N-terminal myristoylation (by NMT1; labelled by YnMyr)): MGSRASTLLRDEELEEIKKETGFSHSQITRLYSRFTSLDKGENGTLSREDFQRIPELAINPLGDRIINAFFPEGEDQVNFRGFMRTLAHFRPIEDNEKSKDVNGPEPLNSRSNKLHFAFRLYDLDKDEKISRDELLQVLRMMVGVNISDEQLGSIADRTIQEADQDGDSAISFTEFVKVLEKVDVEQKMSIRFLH
# [2] = target: T2, 3xFlag-CHP1-WT (UniProt Q99653); test: co-IP; tumor cell lines (not named) transfected with 3xFlag-CHP1-WT or 3xFlag-CHP1-NmyrMT; anti-FLAG M2 (5 µg/IP); blots for Flag and PD-L1
# T2 sequence (chain, N-terminal myristoylation (labelled by YnMyr, Fig. 5J)): T1 sequence (chain, N-terminal myristoylation (by NMT1; labelled by YnMyr))
# [3] = target: T3, 3xFlag-CHP1-NmyrMT (UniProt Q99653); test: as above
# T3 sequence: T1 sequence (chain, N-terminal myristoylation (by NMT1; labelled by YnMyr)) with G2A, S3A, R4A, S6A
substance,measurement,setting,value
programmed death ligand 1 (PD-L1) (from UniProt Q9NZQ7 19-290),binding,[1],binds
same,binding,[2],binds
same,binding,[3],no binding
